Earlier results as cited in patent US20080306069A1, “Pyrazole Derivatives for the Inhibition of CDK'S and GSK'S” (ASTEX THERAPEUTICS LIMITED, priority 2005, published 2008).
For at least one compound, name, drawing or mass did not settle the structure.

Test system: symptomatic CLL patients
Conditions: initial therapy

Nc1nc(F)nc2c1ncn2[C@@H]1O[C@H](CO)[C@@H](O)[C@@H]1O [fludarabine]
duration of progression-free survival: 33 months
